Values quoted from earlier work, collected in patent US9610291B2, “Treatment of respiratory depression” (NUMEDICUS LIMITED, priority 2012, dated 2017).

Settings: in humans; cited from earlier work

For `CN1c2ccccc2C(NCCCCCCC(=O)O)c2ccc(Cl)cc2S1(=O)=O` (stereo not shown) [tianeptine, 7-[(3-chloro-6,11-dihydro-6-methyl-dibenzo[c,f][1,2]thiazepin-11-yl)amino]heptanoic acid S,S-dioxide], the plasma half-life is listed as 2.5 ± 1.1 h.
